No constants are given. Whether binding was seen depends on the method and setting. In cells and extracts the contact can be indirect.

Among the data in PMC13440570 are binding values, retold here.

The target in the experiment is T1, SDS:mVenus^Cter (PROSDS:SDS:mVenus^Cter) (Arabidopsis thaliana) (UniProt Q1PFW3).
T1 sequence: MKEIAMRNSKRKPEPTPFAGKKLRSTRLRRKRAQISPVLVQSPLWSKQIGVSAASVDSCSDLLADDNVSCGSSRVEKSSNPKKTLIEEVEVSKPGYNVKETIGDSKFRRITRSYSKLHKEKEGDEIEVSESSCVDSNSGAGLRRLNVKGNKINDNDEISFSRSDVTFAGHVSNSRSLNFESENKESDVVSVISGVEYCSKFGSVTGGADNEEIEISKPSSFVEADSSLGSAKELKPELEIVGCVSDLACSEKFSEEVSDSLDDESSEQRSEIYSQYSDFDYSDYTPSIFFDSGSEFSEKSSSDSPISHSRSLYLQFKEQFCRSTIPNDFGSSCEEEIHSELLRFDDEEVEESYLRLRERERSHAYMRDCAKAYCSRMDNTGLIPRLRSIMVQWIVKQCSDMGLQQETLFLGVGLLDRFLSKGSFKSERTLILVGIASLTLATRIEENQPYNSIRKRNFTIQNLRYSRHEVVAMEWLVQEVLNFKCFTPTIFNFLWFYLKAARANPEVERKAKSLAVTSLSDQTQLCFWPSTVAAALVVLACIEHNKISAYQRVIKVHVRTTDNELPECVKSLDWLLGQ
The experiment in a line: split reporter; in planta BiFC (split mVenus) in male meiocytes of transformed Arabidopsis wild-type plants, native promoters; confocal microscopy of anthers.

“ASY1^Δclosure-NLS:mVENUS^Nter (PRO_(ASY1):ASY1^Δclosure-NLS:mVENUS^Nter) (Arabidopsis thaliana | SV40) (domain or fragment)”: the binding result is listed as “no binding”.
